For the assay, the system named is CD2F1 mice, L1210 leukemia ip, survival T/C. Description: NCI In Vivo Anticancer Drug Screen. Data for tumor model L1210 Leukemia (intraperitoneal) in CD2F1 (CDF1) mice. The following applies: higher T/C = longer survival. Summed up: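 Antitumor effect is scored in animals hosting a serially transplanted tumor. Values compare compound-dosed animals against vehicle-only controls as a simple quotient.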

Where [1] appears, read: T/C endpoint: mean survival time, dose: 300.0 mg/kg/injection, schedule: Q01DX001 (ip), vehicle: saline.

The list shows only some results of the screen, not a fair sample: it is rich in T/C values a quarter to a half above the control, in often repeated tests (any T/C) and in doses without a T/C. Further doses and runs are listed elsewhere. T/C: endpoint of the treated group in % of that of the vehicle group. Some entries give survivors of the animals treated and no T/C: the source files T/C as zero there, which appears to mark a toxic dose or a test without result, not a measured value. Some survivor counts are full or nearly so, which does not show that the dose was tolerated: survival well below the control is almost never listed, so the zero probably covers shortened survival too. Survivors were counted at the toxicity check, usually on the fifth day, unless a day is given; later deaths do not show. Schedule codes are those of the source, read here as Q, the interval in days (D) or hours (H), X, the number of doses. Some entries were tested several times; the results are listed from low to high. For survival time, this PubChem deposit counts one and a half times the control or more as active, and values a quarter to a half above the control carry no call in these data; other NCI protocols may use other cut-offs. Counts like (3×) count equal records among those shown. Some T/C values carry the count of animals alive at the toxicity check (mostly the fifth day); without a count, all were alive then.

Our source for the T/C and survivor count values is PubChem BioAssay AID256 (DTP/NCI, 2004).

Turning to `CN1N=C(N)c2cn(C3OC(COP(=O)(O)O)C(O)C3O)c3ncnc1c23` (stereo not drawn), the T/C was 125 % of control (T/C endpoint: mean survival time, dose: 6.25 mg/kg/injection, schedule: Q01DX009 (ip), vehicle: water); 126 and 132 % of control (T/C endpoint: mean survival time, dose: 7.81 mg/kg/injection, schedule: Q01DX009 (ip), vehicle: water); 147 % of control (T/C endpoint: mean survival time, dose: 10.0 mg/kg/injection, schedule: Q01DX005 (ip), vehicle: water); 132 % of control (2×) (T/C endpoint: mean survival time, dose: 11.73 mg/kg/injection, schedule: Q01DX009 (ip), vehicle: water); 134 % of control (T/C endpoint: mean survival time, dose: 12.5 mg/kg/injection, schedule: Q01DX009 (ip), vehicle: water); 125 and 134 % of control (T/C endpoint: mean survival time, dose: 15.63 mg/kg/injection, schedule: Q01DX009 (ip), vehicle: water). In addition, the T/C reads like this: (T/C endpoint: mean survival time, dose: 20.0 mg/kg/injection, schedule: Q01DX005 (ip), vehicle: water) 147 % of control; (T/C endpoint: mean survival time, dose: 23.45 mg/kg/injection, schedule: Q01DX009 (ip), vehicle: water) 134 % of control; (T/C endpoint: mean survival time, dose: 25.0 mg/kg/injection, schedule: Q01DX009 (ip), vehicle: water) 134 and 140 % of control; (T/C endpoint: mean survival time, dose: 31.25 mg/kg/injection, schedule: Q01DX005 (iv), vehicle: water) 130 % of control; (T/C endpoint: mean survival time, dose: 31.25 mg/kg/injection, schedule: Q01DX009 (ip), vehicle: water) 141 % of control; (T/C endpoint: mean survival time, dose: 50.0 mg/kg/injection, schedule: Q01DX009 (ip), vehicle: water) 137 and 149 % of control [5 of 6 alive]. The T/C was 143 % of control (T/C endpoint: mean survival time, dose: 62.5 mg/kg/injection, schedule: Q01DX009 (ip), vehicle: water); 140 % of control [8 of 10 alive] (T/C endpoint: median survival time, dose: 6.25 mg/kg/injection, schedule: Q03HX008 (ip), vehicle: alkali diluted with water); 149 % of control [9 of 10 alive] (T/C endpoint: median survival time, dose: 12.5 mg/kg/injection, schedule: Q03HX008 (ip), vehicle: alkali diluted with water); 142 % of control (T/C endpoint: median survival time, dose: 24.0 mg/kg/injection, schedule: Q01DX005 (iv), vehicle: water); 148 % of control (T/C endpoint: median survival time, dose: 35.0 mg/kg/injection, schedule: Q01DX005 (ip), vehicle: water); 148 % of control (T/C endpoint: median survival time, dose: 35.0 mg/kg/injection, schedule: Q01DX005 (iv), vehicle: water). Also, the T/C was 130 % of control (T/C endpoint: median survival time, dose: 53.0 mg/kg/injection, schedule: Q01DX001 (iv), vehicle: water); 147 % of control (T/C endpoint: median survival time, dose: 53.0 mg/kg/injection, schedule: Q01DX005 (ip), vehicle: water); 126 % of control (T/C endpoint: median survival time, dose: 80.0 mg/kg/injection, schedule: Q01DX001 (ip), vehicle: water); 130 % of control (T/C endpoint: median survival time, dose: 80.0 mg/kg/injection, schedule: Q01DX001 (iv), vehicle: water); 127 % of control (T/C endpoint: median survival time, dose: 120.0 mg/kg/injection, schedule: Q01DX001 (ip), vehicle: water); 136 % of control [9 of 10 alive] (T/C endpoint: median survival time, dose: 120.0 mg/kg/injection, schedule: Q01DX001 (iv), vehicle: water). In addition, the T/C (T/C endpoint: median survival time, dose: 200.0 mg/kg/injection, schedule: Q01DX001 (ip), vehicle: alkali diluted with water) is 130 % of control [9 of 10 alive]. For the same molecule, the survivor count was 0 of 8 and 2 of 8 (T/C endpoint: mean survival time, dose: 160.0 mg/kg/injection, schedule: Q01DX005 (ip), vehicle: water); 0 of 6 (T/C endpoint: mean survival time, dose: 200.0 mg/kg/injection, schedule: Q01DX009 (ip), vehicle: water); 0 of 10 (T/C endpoint: median survival time, dose: 25.0 mg/kg/injection, schedule: Q03HX008 (ip), vehicle: alkali diluted with water); 0 of 10 (T/C endpoint: median survival time, dose: 25.0 mg/kg/injection, schedule: Q03HX024 (ip), vehicle: alkali diluted with water); 0 of 10 (T/C endpoint: median survival time, dose: 50.0 mg/kg/injection, schedule: Q03HX008 (ip), vehicle: alkali diluted with water); 0 of 10 (T/C endpoint: median survival time, dose: 50.0 mg/kg/injection, schedule: Q03HX024 (ip), vehicle: alkali diluted with water). Besides, the survivor count is 0 of 10 (T/C endpoint: median survival time, dose: 100.0 mg/kg/injection, schedule: Q03HX008 (ip), vehicle: alkali diluted with water); 0 of 10 (T/C endpoint: median survival time, dose: 100.0 mg/kg/injection, schedule: Q03HX024 (ip), vehicle: alkali diluted with water); 2 of 10 (T/C endpoint: median survival time, dose: 120.0 mg/kg/injection, schedule: Q01DX005 (iv), vehicle: water); 5 of 10 (T/C endpoint: median survival time, dose: 180.0 mg/kg/injection, schedule: Q01DX001 (ip), vehicle: water); 1 of 10 (T/C endpoint: median survival time, dose: 180.0 mg/kg/injection, schedule: Q01DX001 (iv), vehicle: water); 3 of 10 (T/C endpoint: median survival time, dose: 180.0 mg/kg/injection, schedule: Q01DX005 (ip), vehicle: water). The survivor count is, setting by setting: (T/C endpoint: median survival time, dose: 180.0 mg/kg/injection, schedule: Q01DX005 (iv), vehicle: water) 0 of 10; (T/C endpoint: median survival time, dose: 180.0 mg/kg/injection, schedule: Q01DX009 (ip), vehicle: water) 1 of 10; (T/C endpoint: median survival time, dose: 200.0 mg/kg/injection, schedule: Q01DX009 (ip), vehicle: alkali diluted with water) 2 of 10; (T/C endpoint: median survival time, dose: 270.0 mg/kg/injection, schedule: Q01DX001 (ip), vehicle: water) 0 of 10; (T/C endpoint: median survival time, dose: 270.0 mg/kg/injection, schedule: Q01DX001 (iv), vehicle: water) 0 of 10; (T/C endpoint: median survival time, dose: 400.0 mg/kg/injection, schedule: Q01DX001 (ip), vehicle: alkali diluted with water) 4 of 10. Besides, the survivor count is 0 of 10 (T/C endpoint: median survival time, dose: 400.0 mg/kg/injection, schedule: Q01DX009 (ip), vehicle: alkali diluted with water) and 4 of 10 (T/C endpoint: median survival time, dose: 400.0 mg/kg/injection, schedule: Q04DX003 (ip), vehicle: alkali diluted with water).
Regarding `C=C(C)C1C2CC3(C)C4(CO4)C4OC4C3(O)C1C(=O)O2` (stereo not drawn), the survivor count (T/C endpoint: median survival time, dose: 4.0 mg/kg/injection, schedule: Q01DX009 (ip), vehicle: Klucel (hydroxypropylcellulose) (HPC)) is listed as 0 of 6.
Consider `CCOC(=O)c1ccc(Nc2nnc(-c3ccc(OC)cc3OC)s2)cc1`, for which the survivor count by setting is: (T/C endpoint: mean survival time, dose: 200.0 mg/kg/injection, schedule: Q01DX009 (ip), vehicle: saline with Tween-80) 3 of 3; (T/C endpoint: mean survival time, dose: 400.0 mg/kg/injection, schedule: Q01DX009 (ip), vehicle: saline with Tween-80) 3 of 3.
As for `CC([NH-])CC[NH-].[Cl][Pt+2][Cl]` (stereo not drawn), the T/C was 132 % of control (T/C endpoint: mean survival time, dose: 3.12 mg/kg/injection, schedule: Q04DX003 (ip), vehicle: saline with Tween-80) and 133 % of control (T/C endpoint: mean survival time, dose: 12.5 mg/kg/injection, schedule: Q04DX003 (ip), vehicle: saline with Tween-80).
In the case of `COc1cc(NC(=O)CCl)ccc(=O)c1`, the survivor count reads like this: (T/C endpoint: mean survival time, dose: 100.0 mg/kg/injection, schedule: Q04DX003 (ip), vehicle: saline with Tween-80) 5 of 6; (T/C endpoint: mean survival time, dose: 200.0 mg/kg/injection, schedule: Q04DX003 (ip), vehicle: saline with Tween-80) 0 of 6; (T/C endpoint: mean survival time, dose: 400.0 mg/kg/injection, schedule: Q04DX003 (ip), vehicle: saline with Tween-80) 0 of 6.
With `O=C1C=CC(=O)C(Br)C1Br` (stereo not drawn), under setting [1], the survivor count is 1 of 6.
As for `COc1cc2c(ccc3c4cc(OC)c(OC)cc4c[n+](C)c23)cc1O`, the T/C was 144 % of control (T/C endpoint: mean survival time, dose: 20.0 mg/kg/injection, schedule: Q01DX009 (ip), vehicle: saline with Tween-80); 146 % of control (T/C endpoint: mean survival time, dose: 20.0 mg/kg/injection, schedule: Q01DX009 (ip), vehicle: saline); 134 % of control (T/C endpoint: mean survival time, dose: 40.0 mg/kg/injection, schedule: Q01DX009 (ip), vehicle: saline with Tween-80); 144 % of control (T/C endpoint: mean survival time, dose: 40.0 mg/kg/injection, schedule: Q01DX009 (ip), vehicle: saline); 134 % of control (T/C endpoint: mean survival time, dose: 80.0 mg/kg/injection, schedule: Q01DX009 (ip), vehicle: saline with Tween-80).
For `Nc1nc(SSc2nc(N)nc3c2ncn3C2OC(CO)CC2O)c2ncn(C3OC(CO)CC3O)c2n1` (stereo not drawn), the T/C is 133 % of control (T/C endpoint: mean survival time, dose: 75.0 mg/kg/injection, schedule: Q01DX001 (ip), vehicle: saline) and 131 % of control (T/C endpoint: mean survival time, dose: 150.0 mg/kg/injection, schedule: Q01DX001 (ip), vehicle: saline).
Take `FC(F)(F)c1[nH]nc(-c2ccc(Cl)cc2)c1N=NN1CCOCC1`: the survivor count (T/C endpoint: mean survival time, dose: 300.0 mg/kg/injection, schedule: Q01DX001 (ip), vehicle: other) is on record as 3 of 6.
Turning to `NNc1nc(=O)[nH]nc1SCc1ccccc1`, the survivor count under setting [1] is 1 of 6.
